Results are given in words; binding and its absence hold for the method and conditions named. In cells and extracts the contact can be indirect. Here binding means that the protein was enriched with, or labelled near, the bait; the list need not be complete.
Key:
[1] = target: TOPBP1 (endogenous) (human (endogenous in HEK293TN)) (UniProt Q92547); test: affinity purification with mass spectrometry; endogenous TOPBP1 Co-IPs from asynchronous and M phase synchronised HEK293TN cells; TMT isobaric labelling, quantitative LC-MS
[2] = target: TOPBP1 (endogenous) (human (endogenous in HEK293TN)) (UniProt Q92547); test: affinity purification with mass spectrometry; endogenous TOPBP1 precipitated with anti-TOPBP1 (A300-111A) on Dynabeads protein G from benzonase-treated HEK293TN lysates (asynchronous, S phase, M phase); IgG beads as control; label-free DIA LC-MS

Amino acid sequences for entries named in this document (tags omitted).
UniProt Q92547: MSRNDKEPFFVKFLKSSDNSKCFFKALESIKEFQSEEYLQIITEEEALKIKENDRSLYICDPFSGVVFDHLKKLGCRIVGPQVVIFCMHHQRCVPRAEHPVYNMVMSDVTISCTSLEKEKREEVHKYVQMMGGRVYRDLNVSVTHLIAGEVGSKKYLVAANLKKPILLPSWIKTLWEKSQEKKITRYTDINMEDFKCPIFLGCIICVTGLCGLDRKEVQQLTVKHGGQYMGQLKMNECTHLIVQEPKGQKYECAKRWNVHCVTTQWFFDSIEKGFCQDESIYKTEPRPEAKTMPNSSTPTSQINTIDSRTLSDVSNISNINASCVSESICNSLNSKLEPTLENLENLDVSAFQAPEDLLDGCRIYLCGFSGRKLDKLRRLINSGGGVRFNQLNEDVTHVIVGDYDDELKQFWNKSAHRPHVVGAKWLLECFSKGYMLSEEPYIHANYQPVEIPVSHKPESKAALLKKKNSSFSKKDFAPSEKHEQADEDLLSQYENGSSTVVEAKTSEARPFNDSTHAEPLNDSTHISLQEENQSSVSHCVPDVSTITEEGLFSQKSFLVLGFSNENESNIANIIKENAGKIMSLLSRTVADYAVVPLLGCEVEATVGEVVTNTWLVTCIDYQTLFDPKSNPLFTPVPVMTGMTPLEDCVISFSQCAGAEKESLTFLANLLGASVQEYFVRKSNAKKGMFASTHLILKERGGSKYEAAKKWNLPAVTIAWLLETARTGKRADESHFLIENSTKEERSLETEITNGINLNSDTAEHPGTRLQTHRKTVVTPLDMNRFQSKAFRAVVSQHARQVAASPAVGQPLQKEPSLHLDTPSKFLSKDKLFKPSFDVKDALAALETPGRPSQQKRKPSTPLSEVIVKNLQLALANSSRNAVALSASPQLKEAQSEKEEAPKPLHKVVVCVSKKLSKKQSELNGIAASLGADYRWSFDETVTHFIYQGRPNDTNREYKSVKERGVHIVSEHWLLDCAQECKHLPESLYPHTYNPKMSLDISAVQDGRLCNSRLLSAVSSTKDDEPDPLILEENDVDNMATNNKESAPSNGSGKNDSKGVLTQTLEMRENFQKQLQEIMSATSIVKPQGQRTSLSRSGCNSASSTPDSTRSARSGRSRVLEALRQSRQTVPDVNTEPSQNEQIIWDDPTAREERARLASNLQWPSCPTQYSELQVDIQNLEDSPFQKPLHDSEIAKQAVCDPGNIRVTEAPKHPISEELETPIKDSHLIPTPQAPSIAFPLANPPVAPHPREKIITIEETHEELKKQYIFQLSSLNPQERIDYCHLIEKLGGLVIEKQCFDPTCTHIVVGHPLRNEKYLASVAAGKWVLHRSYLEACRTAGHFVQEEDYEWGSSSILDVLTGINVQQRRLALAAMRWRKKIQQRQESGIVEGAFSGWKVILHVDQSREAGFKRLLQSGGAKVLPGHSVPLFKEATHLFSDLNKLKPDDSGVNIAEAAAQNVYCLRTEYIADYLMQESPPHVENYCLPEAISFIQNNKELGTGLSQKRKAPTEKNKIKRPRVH
UniProt Q8IY92: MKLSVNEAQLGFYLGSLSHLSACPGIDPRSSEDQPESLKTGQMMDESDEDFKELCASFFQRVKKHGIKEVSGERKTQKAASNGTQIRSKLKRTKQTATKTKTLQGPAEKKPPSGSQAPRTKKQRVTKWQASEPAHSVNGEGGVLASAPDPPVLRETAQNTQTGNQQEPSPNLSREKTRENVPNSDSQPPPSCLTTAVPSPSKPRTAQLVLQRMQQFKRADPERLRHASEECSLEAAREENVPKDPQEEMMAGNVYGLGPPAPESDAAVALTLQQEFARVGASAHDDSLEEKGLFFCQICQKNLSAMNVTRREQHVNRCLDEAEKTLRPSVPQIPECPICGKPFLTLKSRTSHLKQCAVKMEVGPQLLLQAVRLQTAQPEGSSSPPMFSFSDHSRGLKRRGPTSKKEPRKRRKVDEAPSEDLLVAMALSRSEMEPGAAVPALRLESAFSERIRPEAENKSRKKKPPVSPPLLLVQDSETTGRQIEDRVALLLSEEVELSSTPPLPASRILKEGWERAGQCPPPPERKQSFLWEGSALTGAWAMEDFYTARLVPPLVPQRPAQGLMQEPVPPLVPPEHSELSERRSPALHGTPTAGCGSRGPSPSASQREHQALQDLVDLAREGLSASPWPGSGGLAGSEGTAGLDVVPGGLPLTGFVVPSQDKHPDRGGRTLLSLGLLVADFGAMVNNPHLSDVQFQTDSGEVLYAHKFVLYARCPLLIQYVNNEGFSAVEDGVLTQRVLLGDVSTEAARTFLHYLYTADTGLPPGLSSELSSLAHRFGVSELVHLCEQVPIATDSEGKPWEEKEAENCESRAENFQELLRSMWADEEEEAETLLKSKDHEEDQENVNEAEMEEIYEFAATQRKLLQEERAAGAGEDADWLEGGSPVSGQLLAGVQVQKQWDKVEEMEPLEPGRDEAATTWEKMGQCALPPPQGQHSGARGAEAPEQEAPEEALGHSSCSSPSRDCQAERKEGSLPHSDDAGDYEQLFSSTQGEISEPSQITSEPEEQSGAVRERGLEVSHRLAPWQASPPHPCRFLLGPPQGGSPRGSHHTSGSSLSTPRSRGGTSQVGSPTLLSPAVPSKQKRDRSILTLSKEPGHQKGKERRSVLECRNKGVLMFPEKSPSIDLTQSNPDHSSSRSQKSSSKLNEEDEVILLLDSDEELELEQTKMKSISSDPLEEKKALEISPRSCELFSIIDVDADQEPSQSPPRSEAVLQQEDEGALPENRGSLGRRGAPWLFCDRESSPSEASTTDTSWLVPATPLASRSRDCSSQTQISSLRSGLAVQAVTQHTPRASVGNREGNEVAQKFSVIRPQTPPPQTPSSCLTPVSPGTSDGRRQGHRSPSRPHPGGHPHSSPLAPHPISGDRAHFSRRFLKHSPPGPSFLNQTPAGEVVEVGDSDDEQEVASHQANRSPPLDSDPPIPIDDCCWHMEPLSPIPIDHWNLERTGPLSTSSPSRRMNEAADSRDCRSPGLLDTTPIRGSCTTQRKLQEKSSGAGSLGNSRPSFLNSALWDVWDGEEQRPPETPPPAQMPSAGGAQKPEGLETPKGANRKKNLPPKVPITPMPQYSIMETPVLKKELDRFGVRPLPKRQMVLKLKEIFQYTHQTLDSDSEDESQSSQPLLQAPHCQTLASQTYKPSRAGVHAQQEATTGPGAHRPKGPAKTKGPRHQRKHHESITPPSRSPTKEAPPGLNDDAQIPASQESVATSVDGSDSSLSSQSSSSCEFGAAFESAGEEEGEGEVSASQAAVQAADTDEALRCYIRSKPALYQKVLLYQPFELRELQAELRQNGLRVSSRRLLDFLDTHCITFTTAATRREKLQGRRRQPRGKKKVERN
UniProt Q5VYV7: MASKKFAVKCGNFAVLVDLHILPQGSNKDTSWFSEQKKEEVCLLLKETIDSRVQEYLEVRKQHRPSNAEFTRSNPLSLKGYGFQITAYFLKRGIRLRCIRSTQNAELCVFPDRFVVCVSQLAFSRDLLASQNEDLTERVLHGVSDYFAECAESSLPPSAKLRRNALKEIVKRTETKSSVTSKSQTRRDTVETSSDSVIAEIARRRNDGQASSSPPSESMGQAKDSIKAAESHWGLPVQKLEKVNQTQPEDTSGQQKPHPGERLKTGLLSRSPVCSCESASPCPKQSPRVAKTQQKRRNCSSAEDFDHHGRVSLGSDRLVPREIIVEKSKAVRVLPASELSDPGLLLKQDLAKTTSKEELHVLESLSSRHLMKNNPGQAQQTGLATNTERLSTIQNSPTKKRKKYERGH

| binding [1] | binding [2] | Substance |
| --- | --- | --- |
| binds | binds | SLX4 (endogenous) (from UniProt Q8IY92 1-1834) |
| binds |  | SLX4IP (endogenous) (from UniProt Q5VYV7 1-408) |

Source: PMC12661054, “The CIP2A-TOPBP1 axis facilitates mitotic DNA repair via MiDAS and MMEJ” (Nature Communications, 2025)
